Data reported in article doi:10.1101/850776.
Residue numbers refer to the chain shown, from its start. These are yes or no findings as the source states them, for the method shown. In cells and extracts the contact can be indirect. Here binding means that the protein was enriched with, or labelled near, the bait; the list need not be complete. Tags and fused reporters may be left off the sequences shown.

T1: GFP-tagged mouse RHBDL4-SA (catalytically inactive serine-144-alanine mutant) (mouse) (UniProt Q8BHC7)
T1 sequence: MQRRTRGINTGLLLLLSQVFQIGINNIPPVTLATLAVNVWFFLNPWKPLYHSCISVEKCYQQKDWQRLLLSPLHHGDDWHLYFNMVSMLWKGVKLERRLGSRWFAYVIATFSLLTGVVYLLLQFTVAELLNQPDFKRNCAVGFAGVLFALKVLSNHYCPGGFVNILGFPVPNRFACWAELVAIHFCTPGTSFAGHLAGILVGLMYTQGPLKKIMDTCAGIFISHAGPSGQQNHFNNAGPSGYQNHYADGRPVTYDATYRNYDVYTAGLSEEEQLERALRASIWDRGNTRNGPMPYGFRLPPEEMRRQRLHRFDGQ

T2: GFP-tagged mouse RHBDL4-SA-UIM double mutant (SAUM) (mouse) (UniProt Q8BHC7)
T2 sequence: T1 sequence with L274A, L278A

B1: DDOST (protein, UniProt P39656 43-456)
chain: SGPRTLVLLDNLNVRETHSLFFRSLKDRGFELTFKTADDPSLSLIKYGEFLYDNLIIFSPSVEDFGGNINVETISAFIDGGGSVLVAASSDIGDPLRELGSECGIEFDEEKTAVIDHHNYDISDLGQHTLIVADTENLLKAPTIVGKSSLNPILFRGVGMVADPDNPLVLDILTGSSTSYSFFPDKPITQYPHAVGKNTLLIAGLQARNNARVIFSGSLDFFSDSFFNSAVQKAAPGSQRYSQTGNYELAVALSRWVFKEEGVLRVGPVSHHRVGETAPPNAYTVTDLVEYSIVIQQLSNGKWVPFDGDDIQLEFVRIDPFVRTFLKKKGGKYSVQFKLPDVYGVFQFKVDYNRLGYTHLYSSTQVSVRPLQHTQYERFIPSAYPYYASAFSMMLGLFIFSIVFLHMKEKEKSD
B2: STT3B (protein, UniProt Q8TCJ2 1-826)
chain: MAEPSAPESKHKSSLNSSPWSGLMALGNSRHGHHGPGAQCAHKAAGGAAPPKPAPAGLSGGLSQPAGWQSLLSFTILFLAWLAGFSSRLFAVIRFESIIHEFDPWFNYRSTHHLASHGFYEFLNWFDERAWYPLGRIVGGTVYPGLMITAGLIHWILNTLNITVHIRDVCVFLAPTFSGLTSISTFLLTRELWNQGAGLLAACFIAIVPGYISRSVAGSFDNEGIAIFALQFTYYLWVKSVKTGSVFWTMCCCLSYFYMVSAWGGYVFIINLIPLHVFVLLLMQRYSKRVYIAYSTFYIVGLILSMQIPFVGFQPIRTSEHMAAAGVFALLQAYAFLQYLRDRLTKQEFQTLFFLGVSLAAGAVFLSVIYLTYTGYIAPWSGRFYSLWDTGYAKIHIPIIASVSEHQPTTWVSFFFDLHILVCTFPAGLWFCIKNINDERVFVALYAISAVYFAGVMVRLMLTLTPVVCMLSAIAFSNVFEHYLGDDMKRENPPVEDSSDEDDKRNQGNLYDKAGKVRKHATEQEKTEEGLGPNIKSIVTMLMLMLLMMFAVHCTWVTSNAYSSPSVVLASYNHDGTRNILDDFREAYFWLRQNTDEHARVMSWWDYGYQIAGMANRTTLVDNNTWNNSHIALVGKAMSSNETAAYKIMRTLDVDYVLVIFGGVIGYSGDDINKFLWMVRIAEGEHPKDIRESDYFTPQGEFRVDKAGSPTLLNCLMYKMSYYRFGEMQLDFRTPPGFDRTRNAEIGNKDIKFKHLEEAFTSEHWLVRIYKVKAPDNRETLDHKPRVTNIFPKQKYLSKKTTKRKRGYIKNKLVFKKGKKISKKTV
B3: β-1,4-glucuronyltransferase B4GAT1 (protein, UniProt O43505 1-415)
chain: MQMSYAIRCAFYQLLLAALMLVAMLQLLYLSLLSGLHGQEEQDQYFEFFPPSPRSVDQVKAQLRTALASGGVLDASGDYRVYRGLLKTTMDPNDVILATHASVDNLLHLSGLLERWEGPLSVSVFAATKEEAQLATVLAYALSSHCPDMRARVAMHLVCPSRYEAAVPDPREPGEFALLRSCQEVFDKLARVAQPGINYALGTNVSYPNNLLRNLAREGANYALVIDVDMVPSEGLWRGLREMLDQSNQWGGTALVVPAFEIRRARRMPMNKNELVQLYQVGEVRPFYYGLCTPCQAPTNYSRWVNLPEESLLRPAYVVPWQDPWEPFYVAGGKVPTFDERFRQYGFNRISQACELHVAGFDFEVLNEGFLVHKGFKEALKFHPQKEAENQHNKILYRQFKQELKAKYPNSPRRC
B4: RPN1 (protein, UniProt P04843 24-607)
chain: ASSEAPPLINEDVKRTVDLSSHLAKVTAEVVLAHLGGGSTSRATSFLLALEPELEARLAHLGVQVKGEDEEENNLEVRETKIKGKSGRFFTVKLPVALDPGAKISVIVETVYTHVLHPYPTQITQSEKQFVVFEGNHYFYSPYPTKTQTMRVKLASRNVESYTKLGNPTRSEDLLDYGPFRDVPAYSQDTFKVHYENNSPFLTITSMTRVIEVSHWGNIAVEENVDLKHTGAVLKGPFSRYDYQRQPDSGISSIRSFKTILPAAAQDVYYRDEIGNVSTSHLLILDDSVEMEIRPRFPLFGGWKTHYIVGYNLPSYEYLYNLGDQYALKMRFVDHVFDEQVIDSLTVKIILPEGAKNIEIDSPYEISRAPDELHYTYLDTFGRPVIVAYKKNLVEQHIQDIVVHYTFNKVLMLQEPLLVVAAFYILFFTVIIYVRLDFSITKDPAAEARMKVACITEQVLTLVNKRIGLYRHFDETVNRYKQSRDISTLNSGKKSLETEHKALTSEIALLQSRLKTEGSDLCDRVSEMQKLDAQVKELVLKSAVEAERLVAGKLKKDTYIENEKLISGKRQELVTKIDHILDAL
B5: STT3A (protein, UniProt P46977 1-705)
chain: MTKFGFLRLSYEKQDTLLKLLILSMAAVLSFSTRLFAVLRFESVIHEFDPYFNYRTTRFLAEEGFYKFHNWFDDRAWYPLGRIIGGTIYPGLMITSAAIYHVLHFFHITIDIRNVCVFLAPLFSSFTTIVTYHLTKELKDAGAGLLAAAMIAVVPGYISRSVAGSYDNEGIAIFCMLLTYYMWIKAVKTGSICWAAKCALAYFYMVSSWGGYVFLINLIPLHVLVLMLTGRFSHRIYVAYCTVYCLGTILSMQISFVGFQPVLSSEHMAAFGVFGLCQIHAFVDYLRSKLNPQQFEVLFRSVISLVGFVLLTVGALLMLTGKISPWTGRFYSLLDPSYAKNNIPIIASVSEHQPTTWSSYYFDLQLLVFMFPVGLYYCFSNLSDARIFIIMYGVTSMYFSAVMVRLMLVLAPVMCILSGIGVSQVLSTYMKNLDISRPDKKSKKQQDSTYPIKNEVASGMILVMAFFLITYTFHSTWVTSEAYSSPSIVLSARGGDGSRIIFDDFREAYYWLRHNTPEDAKVMSWWDYGYQITAMANRTILVDNNTWNNTHISRVGQAMASTEEKAYEIMRELDVSYVLVIFGGLTGYSSDDINKFLWMVRIGGSTDTGKHIKENDYYTPTGEFRVDREGSPVLLNCLMYKMCYYRFGQVYTEAKRPPGFDRVRNAEIGNKDFELDVLEEAYTTEHWLVRIYKVKDLDNRGLSRT

How the values were obtained:
[1] = biological target: T1, GFP-tagged mouse RHBDL4-SA (catalytically inactive serine-144-alanine mutant) (mouse); experiment: affinity purification with mass spectrometry
[2] = biological target: T2, GFP-tagged mouse RHBDL4-SA-UIM double mutant (SAUM) (mouse); experiment: affinity purification with mass spectrometry

Row | Binder | binding [1] | binding [2]
1 | B1 | binds | binds
2 | B2 | binds | –
3 | B3 | binds | –
4 | B4 | – | binds
5 | B5 | – | binds
